Measurements taken from US20050152911A1, “Norovirus monoclonal antibodies and peptides” (priority 2003, published 2005).
Entries after “also recorded” stand apart in the source; their conditions may differ. Not every detail of the peptide structures is certain; ends, links or a residue may be inferred. Some compounds share one wording; it may come from a single statement. Ends that are not written are not given here.

What was measured:
[1] = system: SMV62.21; assay: peptide recognized by MAb SMV62.21, identified by phage display; type: binding
[2] = system: NV72.10; assay: peptides bound/recognized by MAb NV72.10 (phage display library screen, synthesized consensus peptides); type: binding
[3] = system: binding of NV54.6 to rNV; assay: Blocking-peptide ELISA; set-up: species or system Norwalk virus; conditions: peptide 1 mg/ml and 2-fold dilutions to 1:4, 0.1 μg NV54.6; compared with IRR 1794 and diluent; FIG. 4
[4] = system: NV54.6; assay: peptides bound/recognized by MAb NV54.6 (phage display library screen, synthesized consensus peptides); type: binding

Sequence | peptide recognized by SMV62.21 [1] | synthesized consensus peptide recognized by NV72.10 [2] | inhibition of binding of MAb NV54.6 to rNV VLP [3] | synthesized consensus peptide recognized by NV54.6 [4]
WLPAPIDKL [peptide 1800, WLPAPIDKL] | recognized | – | – | –
WTRGGHGL [compound 1731, WTRGGHGL] | – | recognized | substantially inhibit; also recorded: inhibit binding | recognized
WTRGSHNL [peptide 1730, WTRGSHNL] | – | recognized | substantially inhibit; also recorded: inhibit binding | recognized
WTRGQHQL [compound 1732, WTRGQHQL] | – | recognized | substantially inhibit; also recorded: inhibit binding | recognized
